{
  "source": "patent US9933424",
  "about": "(SEOUL NATIONAL UNIVERSITY HOSPITAL, dated 2018)",
  "molecules": {"B1": {"name": "recombinant human resistin protein, Q9HD89 19-108 (ligand, UniProt Q9HD89 19-108, looked up)", "chain": "KTLCSMEEAINERIQEVAGSLIFRAISSIGLECQSVTSRGDLATCPRGFAVTGCTCGSACGSWDVRAETTCHCQCAGMDWTGARCCRVQP"}},
  "key": {"[1]": {"target": "mFc-human resistin fusion protein (mouse Fc region of immunoglobulin fused to the N-terminus of human resistin) (mouse; human) (UniProt Q9HD89)", "assay": "far western blotting: mFc-human resistin on PVDF membrane, renatured, probed with recombinant human CAP1, anti-CAP1 detection"}, "[2]": {"target": "adenylyl cyclase-associated protein 1 (CAP1), human, of THP-1 cells (human) (UniProt Q01518)", "assay": "co-immunoprecipitation from THP-1 cell extracts with anti-CAP1 or anti-resistin antibody, western blot"}, "[3]": {"target": "T1, recombinant human CAP1 protein (human), Q01518", "T1 chain": "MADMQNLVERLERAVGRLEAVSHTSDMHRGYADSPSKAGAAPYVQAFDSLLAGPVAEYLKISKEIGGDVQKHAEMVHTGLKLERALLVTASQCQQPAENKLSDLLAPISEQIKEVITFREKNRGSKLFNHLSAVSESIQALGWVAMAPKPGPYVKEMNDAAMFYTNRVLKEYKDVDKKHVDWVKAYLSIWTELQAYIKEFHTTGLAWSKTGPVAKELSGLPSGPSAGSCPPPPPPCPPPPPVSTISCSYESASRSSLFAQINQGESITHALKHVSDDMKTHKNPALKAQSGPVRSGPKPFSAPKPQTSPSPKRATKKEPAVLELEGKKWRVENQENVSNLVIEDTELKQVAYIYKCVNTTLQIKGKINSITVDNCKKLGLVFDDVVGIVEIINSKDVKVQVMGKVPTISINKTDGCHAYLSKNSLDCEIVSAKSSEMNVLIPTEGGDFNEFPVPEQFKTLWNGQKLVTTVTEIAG", "assay": "competition ELISA on plate-coated recombinant CAP1; competitor of mFc-human resistin (0.05, 0.5, 1 ug), anti-mFc-HRP, absorbance at 450 nm", "conditions": "remark: other sources report otherwise"}},
  "note": "No constants are given. Whether binding was seen depends on the method and setting. For part of these data: In cells and extracts the contact can be indirect. Some entries that bind do so weakly or less than the wild type.",
  "data": [
    {"molecule": "recombinant human CAP1 protein (from UniProt Q01518 1-475) (receptor; other documents disagree on this pair)", "values": [
      {"measurement": "binding", "setting": "[1]", "result": "binds"}
    ]},
    {"molecule": "human resistin in THP-1 cell extracts (from UniProt Q9HD89 19-108) (ligand)", "values": [
      {"measurement": "binding", "setting": "[2]", "result": "binds"}
    ]},
    {"molecule": "B1", "values": [
      {"measurement": "binding", "setting": "[3]", "result": "binds"}
    ]}
  ]
}
